Test results published in PubChem BioAssay AID504834 (National Center for Advancing Translational Sciences (NCATS), 2011).
About 22,000 (6.9%) of roughly 320,000 compounds were called active. This list was built around the results that the source calls inconclusive (neither active nor inactive); the mix of calls is not that of the screen. Calls follow the shape of the dose curve; as a rule, active = well fitted inhibition curve with a large enough effect; inconclusive = small, poorly fitted or top-dose-only effect, or another doubt; inactive = no such curve, though single readings can be large or run the other way. A potency beside an inconclusive call is a rough fit, not a confirmed value.

Assay: Primary qHTS for delayed death inhibitors of the malarial parasite plastid, 96 hour incubation
Conditions: P. falciparum luciferase reporter growth; series mostly up to 28.7 µM
How it was run: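 Infected RBCs, 2% Hct / 0.05% parasitemia final; luciferase-reporter P. falciparum; cpd 96 h, 37 C, 5% CO2; luciferase detection reagent; luminescence.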
Potency is read from the fitted curve at half-maximal effect.

| Structure (SMILES) | Potency |
| --- | --- |
| O=C(CCNC(=O)N1CC(=O)Nc2ccccc21)Nc1cccc(Cl)c1 | inconclusive: 18.5 µM [inhibitor, single point] |
| c1ccc(-c2nnc(CN3CCCCC3)o2)cc1 | inactive |
| O=C(Cn1ccc2ccccc2c1=O)NCC1COc2ccccc2O1 (stereo unspecified) | inconclusive: 5.86 µM [inhibitor, single point] |
| O=C(N/N=C/c1cc(Br)ccc1O)C(=O)Nc1ccccc1OC(F)(F)C(F)F | active: 2.94 µM |
| Cc1occc(=O)c1OCc1ccc(Cl)cc1Cl | inactive |
| COc1ccc(Cn2c(SCc3cc(C)ccc3C)nc3cc(OC)c(OC)cc3c2=N)cc1 | inconclusive: 0.522 µM [inhibitor, full curve, poor fit] |
| COc1cc(OC)c(NS(=O)(=O)c2cc(Br)cnc2N)cc1Cl | inactive |
| CC(C)CC(Nc1ncnc2scc(-c3ccccc3)c12)C(=O)O (stereo unspecified) | inconclusive: 14.7 µM [inhibitor, single point] |
| CCn1c(=S)sc2c(=O)n(CC(=O)Nc3cccc(Br)c3)c(C)nc21 | inconclusive: 18.5 µM [inhibitor, single point] |
| CN1CCc2nc3ccccc3c(C(=O)OCC(=O)N(CCC#N)c3ccccc3)c2C1 | active: 13.1 µM |
| CCCc1n[nH]c2c1/C(=N\O)CCC2 | inconclusive: 10.4 µM [inhibitor, single point] |
| CC(=O)Nc1ccc(/C=N/NC(=S)NC(C)C)cc1 | inactive |
| Cc1cccc(C)c1NC(=O)CSc1nnc(-c2ccoc2C)n1C | active: 9.28 µM |
| COc1ccc(OCc2cc(C(=O)NC3CCOCC3)no2)c2ccccc12 | inconclusive: 5.22 µM [inhibitor, partial curve, poor fit] |
| CCOc1cc(CNc2ccccc2)cc(Br)c1OCc1ccc(F)cc1 | inconclusive: 9.28 µM [inhibitor, partial curve, poor fit] |
| COc1ccc2c(c1)CCc1cn3nc(C)cc3nc1-2 | inconclusive: 13.1 µM [inhibitor, partial curve] |
| CC(C)NS(=O)(=O)c1ccc(CCC(=O)NCc2ccco2)cc1 | inactive |
| O=C1NC(=S)N/C1=C/c1cc([N+](=O)[O-])ccc1N1CCOCC1 | inconclusive: 0.329 µM [inhibitor, partial curve, poor fit] |
| Cc1ccnc2nc(C(=O)OCC(=O)N3CC(C)CC(C)C3)nn12 (stereo unspecified) | inactive |
| COc1ccc(-n2cnc3cc(NCc4ccccn4)ccc32)cc1 | inconclusive: 10.4 µM [inhibitor, single point] |
| COc1ccc(-c2nnc3n(CCc4ccccc4)c(=O)c4ccccc4n23)c(OC)c1 | active: 4.65 µM |
| C=CCN(C(=O)c1ccc2c(c1)nnn2C)c1ccccc1 | inconclusive: 3.29 µM [inhibitor, partial curve, poor fit] |
| CN(C(=O)CSc1nnc(-c2ccc(F)cc2)c2ccccc12)C1CCS(=O)(=O)C1 (stereo unspecified) | inactive |
| S=C(NCCc1ccccc1)NC1CCCCCC1 | inactive |

Structures from the list above with a furan ring, fused or not (2):

| Structure (SMILES) | Potency |
| --- | --- |
| Cc1cccc(C)c1NC(=O)CSc1nnc(-c2ccoc2C)n1C | active: 9.28 µM |
| CC(C)NS(=O)(=O)c1ccc(CCC(=O)NCc2ccco2)cc1 | inactive |

(further entries)

| Structure (SMILES) | Potency |
| --- | --- |
| CC1(C)NC(=O)N(CC(O)COc2ccc(-c3ccc(C#N)cc3)cc2)C1=O (stereo unspecified) | inconclusive: 0.0294 µM [inhibitor, partial curve, poor fit] |
| Cc1cccc(C)c1NC(=O)COC(=O)C1C2CC3OC(=O)C1C3C2 (stereo unspecified) | inactive |
| COc1ccc(/C=N/Nc2cc(N3CCCC3)nc(N3CCCC3)n2)cc1 | inconclusive: 11.7 µM [inhibitor, single point] |
| COc1ccc(-n2nc([N+](=O)[O-])c(=NCCc3ccc(C)cc3)n2O)cc1 | inconclusive: 18.5 µM [inhibitor, single point] |
| NC(CCC(=O)N[C@@H](CS)C(=O)NCC(=O)O)C(=O)O (stereo partly specified) | active: 3.01 µM |
| Cc1c(OCC(=O)NCCCn2ccnc2)ccc2c3c(c(=O)oc12)CCCC3 | inconclusive: 18.5 µM [inhibitor, single point] |
| CC(C)C(=O)Nc1nnc(Cc2ccccc2)s1 | inconclusive: 9.28 µM [inhibitor, single point] |
| Cc1ccc(NC(=O)CN(c2ccc(Cl)cc2)S(=O)(=O)c2cc([N+](=O)[O-])ccc2Cl)cc1 | inconclusive: 18.5 µM [inhibitor, single point] |
| CC(=O)c1cc2c(cc1NS(=O)(=O)c1ccc(C)cc1)OCO2 | inconclusive: 0.165 µM [inhibitor, full curve, poor fit] |
| Cc1c(NC(=O)CSc2nnc(COc3ccccc3)n2-c2ccccc2)c(=O)n(-c2ccccc2)n1C | inconclusive: 0.522 µM [inhibitor, full curve, poor fit] |
| CC(=O)Nc1ccc(N2C(C(C)=O)=NN(c3ccc(Cl)cc3)C2c2sccc2C)cc1 (stereo unspecified) | inconclusive: 11.7 µM [inhibitor, partial curve, poor fit] |
| O=S(=O)(NCc1ccccc1Cl)c1ccc(-n2cnnn2)cc1 | inconclusive: 16.5 µM [inhibitor, single point] |
| CC(C)(CNc1ccc([N+](=O)[O-])cc1Cl)CNS(C)(=O)=O | inconclusive: 11.7 µM [inhibitor, single point] |
| O=C(CCCn1c(=S)[nH]c2ccccc2c1=O)N1CCOCC1 | inconclusive: 0.928 µM [inhibitor, full curve, poor fit] |
| CC1CCCC(C)N1CCNC(=O)Nc1ccc(Cl)cc1 (stereo unspecified) | inconclusive: 0.0928 µM [inhibitor, full curve, poor fit] |
| Cc1ccc(NC(=O)NC(=O)CN2CCN(c3ccc(O)cc3)CC2)c(C)c1 | inactive |
| Cc1nc2ncnn2c(N2CCN(S(=O)(=O)c3ccc(Br)cc3)CC2)c1C | inactive |
| CCc1nc(C)cn1S(=O)(=O)c1ccc(Br)cc1 | inconclusive: 13.1 µM [inhibitor, single point] |
| CCOC(=O)CC1C(=O)NCCN1C(=O)c1cc2c(=O)n3ccccc3nc2s1 (stereo unspecified) | active: 10.4 µM |
| CCN1CCCC1CNC(=O)c1ccc(N2CCOCC2)c(NS(=O)(=O)c2ccc(OC)cc2)c1 (stereo unspecified) | inactive |
| CC1(C)CC(=O)C(C2c3ccccc3Oc3ccccc32)C(=O)C1 | inconclusive: 0.329 µM [inhibitor, single point] |
| COc1cc(NC(=O)CSCc2ccc(Cl)cc2)c(C(=O)O)cc1OC | inactive |
| Cc1cc(C(=O)N2CCCC(N3CCN(c4cccc(Cl)c4)CC3)C2)no1 (stereo unspecified) | inactive |
| CC(NC(=O)C(=O)NCc1cccs1)c1ccccc1 (stereo unspecified) | inconclusive: 8.28 µM [inhibitor, partial curve] |

| Structure (SMILES) | Potency |
| --- | --- |
| Cc1nn(C)c(C)c1S(=O)(=O)N1CCC(CO)(CC2CCCCO2)CC1 (stereo unspecified) | inconclusive: 18.5 µM [inhibitor, single point] |
| C=CCn1c(=N)n(CC(=O)c2cccc([N+](=O)[O-])c2)c2ccccc21 | inconclusive: 11.7 µM [inhibitor, partial curve] |
| Cc1ccc(-c2noc(CCC(=O)NC3CCCC3)n2)cc1 | inconclusive: 13.1 µM [inhibitor, single point] |
| Cc1ccc(COCC(CC(C)C)N2CCN(C(=O)c3cccc(C(F)(F)F)c3)CCC2=O)cc1 (stereo unspecified) | inconclusive: 10.4 µM [inhibitor, single point] |
| COc1cc(C2C3=C(CC(C)(C)CC3=O)Nc3ccccc3N2C(C)=O)cc(OC)c1OC (stereo unspecified) | inactive |
| CCCCC | inconclusive: 4.78 µM [inhibitor, partial curve, poor fit] |
| N#CC1=C(N)SC(N)=C(C#N)C1c1cccc(O)c1 | inconclusive: 2.94 µM [inhibitor, single point] |
| Cc1ccc(CSC2=NCCN2C(=O)c2ccco2)cc1 | inconclusive: 5.22 µM [inhibitor, partial curve, poor fit] |
| CCOc1cc(C2NC(=O)NC(c3ccccc3)=C2C(=O)c2ccccc2)c(Br)cc1OCC(=O)O (stereo unspecified) | inconclusive: 10.4 µM [inhibitor, single point] |
| CC1CCCC(NC(=O)C2CCN(S(=O)(=O)c3cnc[nH]3)CC2)C1C (stereo unspecified) | inactive |
| COc1ccc(CCN2CC(C(=O)NCc3cc(C)on3)CCC2=O)cc1 (stereo unspecified) | inconclusive: 18.5 µM [inhibitor, single point] |
| O=C(COC(=O)c1cc(S(=O)(=O)N2CCCC2)ccc1O)Nc1ccc(SC(F)F)cc1 | inactive |
| CCOCCOC(=O)CCSc1n[nH]c(=O)[nH]c1=O | active: 10.4 µM |
| COc1ccccc1N(CC(=O)Nc1ccc(S(=O)(=O)N2CCCCC2)cc1)S(C)(=O)=O | inconclusive: 4.15 µM [inhibitor, single point] |
| COc1ccc(CNc2ncc(-c3ccc(Br)cc3)n2C)cc1OC | active: 13.1 µM |
| O=C(Nc1ccccc1O)c1cc2cc(Br)ccc2oc1=O | inactive |
| CCN(C(=O)c1c(N)cnn1C)c1ccccc1 | inconclusive: 13.1 µM [inhibitor, single point] |
| Cc1ccc(C)c(NC(=O)C2CCCN(S(=O)(=O)c3c(C)nn(C)c3C)C2)c1 (stereo unspecified) | active: 2.94 µM |
| CCOc1ccc(C(=O)NC(=S)Nc2cccc(NC(=O)c3ccco3)c2)cc1[N+](=O)[O-] | inactive |
| CCn1cc(C(=O)O)c(=O)c2cc(F)c(N3CCN(S(=O)(=O)c4ccc(Br)cc4)CC3)cc21 | inconclusive: 3.7 µM [inhibitor, partial curve, poor fit] |
| Cc1ccc(C)c(NC(=O)COC(=O)c2ccc(S(=O)(=O)N3CCCCC3)cc2)c1 | inconclusive: 0.0738 µM [inhibitor, full curve] |
| COc1ccc(C2=NOC(COC(=O)c3ccc4ccccc4n3)C2)cc1 (stereo unspecified) | inactive |
| CC(=O)NC(Cc1ccccc1)C(=O)OCC(=O)c1ccc(Cl)cc1 (stereo unspecified) | inconclusive: 18.5 µM [inhibitor, single point] |

3 compounds already listed, sorted by formula weight, ascending.

| Structure (SMILES) | Potency |
| --- | --- |
| CCOCCOC(=O)CCSc1n[nH]c(=O)[nH]c1=O | active: 10.4 µM |
| COc1ccc(CCN2CC(C(=O)NCc3cc(C)on3)CCC2=O)cc1 (stereo unspecified) | inconclusive: 18.5 µM [inhibitor, single point] |
| COc1ccc(CNc2ncc(-c3ccc(Br)cc3)n2C)cc1OC | active: 13.1 µM |
